From ChEMBL document CHEMBL3988442, “University of Dundee, Small-Polar-MMV Screening Library” (2021).

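Growth of Mycobacterium tuberculosis over 4 days (cholesterol / DPPC medium with tyloxapol); the read-out is not stated. Concentration: 50 µM. Higher reads as more growth inhibition (inferred: compounds with an IC50 in retests scored well above the rest). Size under these conditions: about 69,000 compounds, about 370 of them at 50% or above in at least one test.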

Each number is a percent effect as filed.
The record does not define 0% and 100%; most values in the screen are far below 50% and negative numbers occur (in some assays of this library far below -100).
The compounds are a random part of those screened.
Two or more numbers in one place are separate tests of the same structure; such repeats can differ widely.

Compound	Percent Effect
Cc1csc(CCNc2ccc(C#N)cn2)n1	-18.89
Cc1cc(CN2CCCCC2Cn2cncn2)no1 (configuration not stated)	12.83
c1cncc(-c2noc(CNC3CCc4ncnn4C3)n2)c1 (configuration not stated)	-7.489
Cc1ccc(C(=O)N2CCC(Oc3ccccc3)CC2)c(=O)[nH]1	-8.867
O=C([C@H](O)c1ccccc1)N1CCN(c2cccc(Cl)c2)C(=O)C1	0.3365
CN1CC2(COCCN(c3ncccn3)C2)OCC1=O (configuration not stated)	4.076 & -3.043
COCc1nc2ncc3c(=O)n(-c4ccccc4OC)ccc3n2n1	-9.682 & 13.99
Cc1cc(-c2cncnc2)nc(C2CCCN2S(C)(=O)=O)n1 (configuration not stated)	-0.1222
Cc1nnc(Nc2cccc(C3CCCN(Cc4ncc[nH]4)C3)n2)s1 (configuration not stated)	5.071
CCN(CC)c1ccc2ccc(C(=O)NC3CC3)cn12	21.17
Cc1ncc2c(n1)CCCC2NC(=O)c1cnn(Cc2ccccc2)c1 (configuration not stated)	4.525
CC(C)n1ccnc1CN1CCOC(CCc2ccccc2)C1 (configuration not stated)	-5.833 & -1.398
Cc1noc(C)c1CN(C)c1ncnc2onc(C)c12	-20.17
CN(Cc1csc(-c2cccs2)n1)Cc1cccnc1N	14.94
Cc1nnn2c1COCC(CNC(=O)c1ccc[nH]1)C2 (configuration not stated)	-5.941
CC(=O)N[C@@H]1CN(C(=O)Cc2coc3cc(C)ccc23)C[C@H]1O	20.55
CSc1cccc(NC(=O)N2CCCC(CNC(=O)c3ccco3)C2)c1 (configuration not stated)	13.1
CCc1ccc(C(C)NC(=O)CCc2nc(-c3nnc[nH]3)no2)cc1 (configuration not stated)	-10.16
c1cncc(CN(Cc2ccsc2)Cc2ccc(C3CCCCO3)o2)c1 (configuration not stated)	-9.995
Cl.O=C(NCCO)c1sc2ncccc2c1C1CNCCO1 (configuration not stated)	-10.27
O=C(O)C(F)(F)F.O=C(O)C(F)(F)F.O=S(=O)(NCC1OCCc2cn(Cc3ccccn3)nc21)C1CC1 (configuration not stated)	1.234
O=S(=O)(NCc1ccccc1)N1CCN(c2ncccn2)CC1	6.909
O=C1NCCCCC1SCc1coc(-c2cccc(F)c2)n1 (configuration not stated)	10.2
Cc1cc(N[C@H](CO)c2ccccc2)n2nc(C)cc2n1	-4.547
O=C(c1cnns1)N1CCN(Cc2ccc(F)cc2Cl)CC1	2.607
CCc1ncc2c(n1)CN(Cc1nnc(C)o1)CC2	-6.741
Cn1cc(C(=O)N2CCCC2c2noc(C3CC3)n2)c2ccccc21 (configuration not stated)	-5.798
O=C(O)C(F)(F)F.O=C(O)C(F)(F)F.[H][C@@]12CN(Cc3ccoc3)C[C@]1([H])OCCN2c1ccc(C)nn1	-12.15
CC(C)[C@H]1CN(Cc2c[nH]cn2)C[C@@H]1NC(=O)CC1CCC1	-0.5534
CC(=O)Nc1nc(C(=O)NC(C)c2ccc3c(c2)OCCO3)cs1 (configuration not stated)	8.156
COc1ccncc1NCc1ccsc1	14.49 & -1.684
CNC(=O)C1Cn2ccnc2C2(CCN(C(=O)c3ccccn3)CC2)O1 (configuration not stated)	-5.165
O=C(O)C(F)(F)F.O=C(O)C(F)(F)F.[H][C@@]12OCCN(Cc3ccsc3)[C@@]1([H])CC[C@H]2OCc1ccccn1	1.215
CN1C(=O)CCCC12CCCN(C(=O)c1ccoc1)C2 (configuration not stated)	-2.26 & -2.236
COc1cccc(OCC2CCCN(C(=O)c3cnn(C)c3)C2)c1 (configuration not stated)	-4.407
O=C(O)C(F)(F)F.[H][C@@]12CN(Cc3ccc(CC)o3)C[C@]1([H])OCCN2c1ccnc(N(C)C)n1	12.24
Cn1ncnc1NCc1ccc(Br)cc1	10.11
Cc1cc(-n2c(C)cn(CN(C)C3CCS(=O)(=O)C3)c2=O)no1 (configuration not stated)	-31.65
COc1ccc(NC(=O)c2cnc(C3CCN(C)CC3)nc2C)cc1	-9.487 & -16.37
CN(Cc1ccsc1)C(=O)Cn1c(CS(C)(=O)=O)nc2ccccc21	5.794
[H][C@@]12CCN(C[C@@H]1CC)[C@@H](CNC(=O)c1ccco1)C2	-7.697
O=C(CCCc1ccccn1)NCC(O)c1c(F)cccc1F (configuration not stated)	-20.61
CCN1Cc2nc(OC)c(CNC(=O)CCC3CCCC3)cc2C1=O	8.742 & -11.51
CC(C)c1ncncc1C(=O)N1CCN(Cc2cscn2)CC1	-15.07
COc1ccccc1CC1CCCN1C(=O)c1cn[nH]c1C (configuration not stated)	-6.043
CCc1noc(CN(CC(=O)N2CCCCC2)c2cccc(C)c2)n1	17.39
Cc1cnc(C(=O)Nc2cc(F)ccc2OCC2CCCO2)cn1 (configuration not stated)	21.46
Cc1ccc(-c2nc(C(=O)N(C)CC(=O)N3CCCC3)cs2)c(C)c1	2.307
COCC[C@]1(O)CCN(c2ncc(Cl)cc2F)C[C@H]1C	5.084
CN(C)c1ccc(C(=O)NCC2(c3ccccc3)CCOCC2)cc1	-7.958
CCC(CC)c1cc(CNC(=O)N2CCOC(C)C2)on1 (configuration not stated)	6.251
O=C(c1cccnc1-n1cncn1)N1CCc2ccccc2C1	10.35
Cc1cc(C)n(CCCn2cncc2-c2ccc3c(c2)CC(C)N3C)n1.Cl (configuration not stated)	23.79 & 28.5
O=C(NCc1cn2c(n1)CN(Cc1ccccn1)CC2)C1CCC1.O=C(O)C(F)(F)F.O=C(O)C(F)(F)F	-28.4
Cc1ccc(NC2CCN(C(=O)c3cccnc3N(C)C)CC2)nn1	-7.014
O=C(NCC1Cn2nnc(-c3ccncc3)c2CO1)c1ccc[nH]1 (configuration not stated)	-5.725
CC(Cn1cccn1)NC(=O)Nc1ccc(N(C)C)nc1 (configuration not stated)	-30.68
CNC(=O)c1ccnc(CC2COc3c(cccc3OC)C2)c1 (configuration not stated)	3.438
CCC1CCN(CCn2cnc3c(C)csc3c2=O)CC1	4.27
CC(C)OCCCNC(=O)CSc1nnc(OC(C)C)s1	9.268
O=C(NCCCn1cccn1)N1CCCC1c1ccncc1 (configuration not stated)	-25.41
Cc1ccsc1CN(CCN(C)C)C(=O)C1=NNC(=O)CC1	9.689
O=S(=O)(CC1CC1)c1ncc(CN2CCOCC2)n1CC1CCCO1 (configuration not stated)	-19.96
Cc1nc2[nH]cnc(NCCCN3CCOCC3)c-2n1	-19.36
O=C(N1CCCC1)N1CCCC2(CCN(c3ccsc3)C2=O)C1 (configuration not stated)	8.36 & -15.88
CCOc1ccc(CN(C)C(=O)c2nc(N3CCCC3)ncc2Cl)cc1	8.611
O=C(NCC(O)c1ccc(F)c(F)c1)c1ccccc1F (configuration not stated)	11.55
Cn1cc(-c2cnc3n2CCC32CCN(S(C)(=O)=O)CC2)cn1	-26.99
COCCSCC(=O)NCc1ccc(N(C)C)nc1	-16.5 & -7.309
Cl.c1cnc2c(c1)cc([C@@H]1CCCO1)n2CCN1CCCCC1	13.03
Cc1nnc2n1CCN(C(=O)CN1C(=O)CCCc3ccccc31)C2	-11.36
COC(=O)CNC(=O)CCc1cc(Br)cs1	1.374 & 3.07
Cc1ccc(-c2nc(CCNC(=O)NCC(C)(C)C(N)=O)co2)cc1	18.06
CC(=O)N(Cc1noc(C)n1)C1CCN(Cc2cc(C)on2)C1 (configuration not stated)	-18.77
O=C(O)C(F)(F)F.[H][C@@]12CCN(C(=O)c3ccc(C#N)cc3)[C@]1([H])CCC(=O)N2CCN(C)C	10.52
O=C1NCC(c2ccc(Cl)cc2)Cc2[nH]c(CCN3CCOCC3)nc21 (configuration not stated)	10.42
O=C(O)C(F)(F)F.[H][C@@]12CCN(Cc3ccccn3)C[C@@]1([H])O[C@H](C(=O)N1CCCO1)C2	-31.29 & -26.75
CC(C)CC(NC(=O)CN(C)C(=O)c1ccco1)c1cccs1 (configuration not stated)	-17.57
CC(=O)NC1Cc2ccc(S(=O)(=O)NCCNc3ccccn3)cc2C1 (configuration not stated)	-4.101
Cc1nn(C)cc1C1CC(=O)Nc2c1cnn2C (configuration not stated)	-11.81
CCN(CCC(=O)OC)S(=O)(=O)c1cnc2c(c1)c(C)nn2C	1.399 & -1.771
Cc1nn(CC(=O)Nc2cccc(F)c2)c(N)c1C#N	-16.72 & -4.636
CCSc1ccc(NC(=O)N2CCCC2c2ccncc2)cn1 (configuration not stated)	7.506
Clc1cccc(CNc2cnn(CCN3CCCCC3)c2)c1	-9.342
CSCCCN1CCCC1c1noc(C)n1 (configuration not stated)	1.631

The first 10 entries again:

Cc1csc(CCNc2ccc(C#N)cn2)n1 read -18.89%.
Cc1cc(CN2CCCCC2Cn2cncn2)no1 (configuration not stated) read 12.83%.
c1cncc(-c2noc(CNC3CCc4ncnn4C3)n2)c1 (configuration not stated) read -7.489%.
Cc1ccc(C(=O)N2CCC(Oc3ccccc3)CC2)c(=O)[nH]1 read -8.867%.
O=C([C@H](O)c1ccccc1)N1CCN(c2cccc(Cl)c2)C(=O)C1 read 0.3365%.
CN1CC2(COCCN(c3ncccn3)C2)OCC1=O (configuration not stated) read 4.076% & -3.043%.
COCc1nc2ncc3c(=O)n(-c4ccccc4OC)ccc3n2n1 read -9.682% & 13.99%.
Cc1cc(-c2cncnc2)nc(C2CCCN2S(C)(=O)=O)n1 (configuration not stated) read -0.1222%.
Cc1nnc(Nc2cccc(C3CCCN(Cc4ncc[nH]4)C3)n2)s1 (configuration not stated) read 5.071%.
CCN(CC)c1ccc2ccc(C(=O)NC3CC3)cn12 read 21.17%.